{"source": "paper PMC7990796", "about": "“Efficacy of a Combined Antiplatelet Therapy Is Not Affected by a Simultaneous Binding of Cangrelor and PSB 0777 to Albumin” (Frontiers in Pharmacology, 2021)", "test_system": "platelets (platelet-rich plasma, isolated platelets)", "test": "Inhibition of ADP-induced platelet activation (P-selectin/CD62P expression, flow cytometry)", "assay_type": "cell-based, human", "conditions": "17 nM", "method": "Human blood was obtained from consecutively recruited healthy volunteers (simple random non-stratified sampling): four men and seven women; mean age 25 ± 5 years. All individuals provided their written informed consent to participate in the study. The exclusion criteria were the same as described previously ([Wzorek et al., 2020]). The study was approved by the Human Studies Committee of the Medical University of Lodz (Poland) and was conducted in accordance with the guidelines established by the Declaration of Helsinki. Whole blood was collected into polypropylene tubes with a blood-to-acid citrate dextrose solution (ACD) ratio of 6:1 (vol:vol).\nHuman platelet-rich plasma (PRP) was prepared by centrifuging of anticoagulated whole blood at 190 x g for 12 min at 37°C. […] Platelet count in PRP was measured with automated haematology analyzer Sysmex XS-800i™ (Sysmex, Kobe, Japan) and adjusted to 1 × 10^8 cells per ml. […]\nThe effect of plasma or HSA on inhibition of platelet activation by cangrelor was assessed by two-colour flow cytometry with the use of anti-CD61/PerCP (for platelet gating) and anti-CD62/PE (for detection of activated platelets). The antiplatelet activity of cangrelor was evaluated in PRP and suspensions of isolated platelets, when the effect of plasma was examined, or in isolated platelets containing 4% HSA, when the effect of albumin was studied. […]", "data": [{"smiles": "CSCCNc1nc(SCCC(F)(F)F)nc2c1ncn2[C@@H]1O[C@H](COP(=O)(O)OP(=O)(O)C(Cl)(Cl)P(=O)(O)O)[C@@H](O)[C@H]1O", "note": "[cangrelor]", "values": [{"measurement": "difference in inhibition of platelet activation, PRP compared to isolated platelets", "setting": "lower in PRP, p < 0.05", "result": 1.2, "unit": "fold"}, {"measurement": "difference in inhibition of platelet activation, platelets with HSA compared to controls", "setting": "lower with 4% HSA, p < 0.01", "result": 1.3, "unit": "fold"}]}]}
